Data taken from US9877998B2, “Uses of hypoxia-inducible factor inhibitors” (OncoImmune, Inc., priority 2009, dated 2018).
For at least one compound, name, drawing or mass did not settle the structure.

Columns and labels:
[1] = system: lymphoma CSC (c-Kit+Sca-1+ TGB lymphoma cells); assay: Colony formation (CFU) assay of TGB lymphoma cells in 1% methylcellulose medium; assay type: cell-based, mouse; details: less efficacy than echinomycin (FIG. 12a)
Protocol: FIG. 2. HIF addiction of CSC. a. Selective ablation of lymphoma CFU by echinomycin. The cultured lymphoma cells were treated with given doses of pharmacologically effective drugs in medium for 24 hours. After washing away the drugs, the cells were cultured in 1% methylcellulose-containing medium, and the colony number was counted after 6 to 7 days. Data shown are means and SD of triplicates and have been confirmed by 3 independent experiments. b. A reporter system for HIF activity in the TGB lymphoma. Diagram of lentiviral construct for HIF activity is shown on the top. Pause, a sequence fragment to eliminate the effect of lentiviral promoter; HRE, Hypoxia response element (SEQ ID NO: 20); TATA, TATA sequence (TATATAAT) (top). Lower left, validation of the reporter. […] The cells were analyzed by flow cytometry to detect EGFP expression 36 hours after transduction. […]
FIG. 6. […] After that, the cells were cultured in 1% methylcellulose-containing medium, and the colony number was counted after 6 to 7 days. […] The expressions of Hes1αnd mRNA in these two fractions were measured by real time PCR. c. […] The mRNA from the treated cells were extracted for quantitation by real-time PCR. […] After three consecutive transductions by either vector control or the dRdA1-4dOP mutant, the RNA were isolated and the transcripts of Hes measured by quantitative PCR. […]

TGB lymphoma = assay: In vivo tumorigenicity / therapy of transplanted TGB lymphoma in B10.BR mice (survival); details: 9×10^5 lymphoma cells i.p., 5 injections at two day interval from day 8; less efficacy than echinomycin (FIG. 12b)
Protocol: FIG. 2. HIF addiction of CSC. a. Selective ablation of lymphoma CFU by echinomycin. The cultured lymphoma cells were treated with given doses of pharmacologically effective drugs in medium for 24 hours. After washing away the drugs, the cells were cultured in 1% methylcellulose-containing medium, and the colony number was counted after 6 to 7 days. Data shown are means and SD of triplicates and have been confirmed by 3 independent experiments. b. A reporter system for HIF activity in the TGB lymphoma. Diagram of lentiviral construct for HIF activity is shown on the top. Pause, a sequence fragment to eliminate the effect of lentiviral promoter; HRE, Hypoxia response element (SEQ ID NO: 20); TATA, TATA sequence (TATATAAT) (top). Lower left, validation of the reporter. HEK293 cells were transiently transfected with cDNA encoding mutant HIF1α (P402A/P577A) or vector control in conjunction with either HRE-driven EGFP reporter, HRE mutant reporter (SEQ ID NO: 21). The cells were analyzed by flow cytometry to detect EGFP expression 36 hours after transduction. […] IC50 of echinomycin in the inhibition of HIF1α activity in lymphoma CSC. […]
Given numbers of total tumor cells or sorted subsets were injected into either immune competent B10.BR mice or RAG-2^−/−BALB/c mice. […] The therapeutic effects were analyzed by Kaplan Meier survival analysis.

[2] = system: lymphoma CSC (c-Kit+Sca-1+ TGB lymphoma cells); assay: Colony formation (CFU) assay of TGB lymphoma cells in 1% methylcellulose medium; assay type: cell-based, mouse; details: first and second rounds of sorted cells, 1000/well, drug 24 hours, colonies counted after 5 days

Q: With `COC1=C2C[C@@H](C)C[C@H](OC)[C@H](O)[C@@H](C)/C=C(\C)[C@H](OC(N)=O)[C@@H](OC)/C=C\C=C(/C)C(=O)NC(=CC1=O)C2=O` [Geldanamycin] as the compound, how does the “CFU of CSC” value [1] read?
A: reduced

Q: And the “tumor initiation of CSC” value (TGB lymphoma)?
A: reduced

Q: And the “inhibition of colony formation of sorted c-Kit+Sca-1+ tumor cells” value [2]?
A: Inhibition
